Source: patent publication US20210380703A1
No constants are given. Whether binding was seen depends on the method and setting. Tags and fused reporters may be left off the sequences shown.

T1: His-tagged Human ACVR2B (human) (UniProt Q13705)
T1 sequence (looked up): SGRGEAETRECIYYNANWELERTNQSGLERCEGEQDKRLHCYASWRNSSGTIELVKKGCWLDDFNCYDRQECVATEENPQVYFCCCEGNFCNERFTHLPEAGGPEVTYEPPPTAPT

T2: His-tagged Mouse ACVR2B (mouse) (UniProt P27040)
T2 sequence (looked up): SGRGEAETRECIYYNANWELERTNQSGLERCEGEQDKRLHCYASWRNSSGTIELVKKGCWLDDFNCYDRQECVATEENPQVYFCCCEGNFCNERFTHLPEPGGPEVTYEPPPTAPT


Key:
[1] = target: T1, His-tagged Human ACVR2B (human); assay: ELISA, coated antigen, 10 pt
[2] = target: T2, His-tagged Mouse ACVR2B (mouse); assay: ELISA, coated antigen, 10 pt

binding [1] | binding [2] | Binder
no binding (tested: 1 uM) | no binding (tested: 1 uM) | 372_B09 (antibody, V domains shown) VH: EVQLLESGGGLVQPGGSLRLSCAASGFTFSSYSMNWVRQAPGKGLEWVSSINYNSGYTSYADSVKGRFTISRDNSKNTLYLQMNSLRAEDTAVYYCARGATWHDTHLDYWGQGTLVTVSS VL: DIQMTQSPSSLSASVGDRVTITCRASQSILTYLNWYQQKPGKAPKLLIYAATSRASGVPSRFSGSGSGTDFTLTISSLQPEDFATYYCQQSYETPLTFGGGTKVEIK
no binding (tested: 1 uM top) | no binding (tested: 1 uM top) | 370_D04 (antibody, V domains shown) VH: EVQLLESGGGLVQPGGSLRLSCAASGFTFDSYSMNWVRQAPGKGLEWVANINYNSGYKGYADSVKGRFTISRDNSKNTLYLQMNSLRAEDTAVYYCARSANWHDTALDYWGQGTLVTVSS VL: DIQMTQSPSSLSASVGDRVTITCRASQSILTYLNWYQQKPGKAPKLVIYAATSRASGVPSRFSGSGSGTDFTLTISSLQPEDFATYYCQQSYDNPLTFGGGTKVEIK
no binding (tested: 1 uM top) | no binding (tested: 1 uM top) | 366_B12 (antibody, V domains shown) VH: EVQLLESGGGLVQPGGSLRLSCAASGFTFSSYSMNWVRQAPGKGLEWVAGINYNSGYKGYADSVKGRFTISRDNSKNTLYLQMNSLRAEDTAVYYCARSANWHDTALDYWGQGTLVTVSS VL: DIQMTQSPSSLSASVGDRVTITCRASQSILTYVNWYQQKPGKAPKLLIYAATSRASGVPSRFSGSGSGTDFTLTISSLQPEDFATYYCQQSYDNPLTFGGGTKVEIK
no binding (tested: 1 uM top) | no binding (tested: 1 uM top) | 369_D02 (antibody, V domains shown) VH: EVQLLESGGGLVQPGGSLRLSCAASGFTFSDYSMNWVRQAPGKGLEWVSNINYNSGYTGYADSVKGRFTISRDNSKNTLYLQMNSLRAEDTAVYYCARSANWHDTALDYWGQGTLVTVSS VL: DIQMTQSPSSLSASVGDRVTITCRASQSILSYLNWYQQKPGKAPKLVIYAVTSRASGVPSRFSGSGSGTDFTLTISSLQPEDFATYYCQQSYDTPLTFGGGTKVEIK
no binding (tested: 1 uM top) | no binding (tested: 1 uM top) | 367_H06 (antibody, V domains shown) VH: EVQLLESGGGLVQPGGSLRLSCAASGFTFSSYGMNWVRQAPGKGLEWVSNINYNGGYTGYADSVKGRFTISRDNSKNTLYLQMNSLRAEDTAVYYCARSANWHDTHLDYWGQGTLVTVSS VL: DIQMTQSPSSLSASVGDRVTITCRASQSIITYLNWYQQKPGKAPKLLIYAATSRASGVPSRFSGSGSGTDFTLTISSLQPEDFATYYCQQSYDTPLTFGGGTKVEIK
no binding (tested: 1 uM) | no binding (tested: 1 uM) | 373_F07 (antibody, V domains shown) VH: EVQLLESGGGLVQPGGSLRLSCAASGFTFSSYSMNWVRQAPGKGLEWVSGINYNSGYKSYADSVKGRFTISRDNSKNTLYLQMNSLRAEDTAVYYCARGATWHDTHLDYWGQGTLVTVSS VL: DIQMTQSPSSLSASVGDRVTITCRASQSILSYLNWYQQKPGKAPKLLIYAATSLASGVPSRFSGSGSGTDFTLTISSLQPEDFATYYCQQSYETPLTFGGGTKVEIK
no binding (tested: 1 uM top) | no binding (tested: 1 uM top) | 374_G05 (antibody, V domains shown) VH: EVQLLESGGGLVQPGGSLRLSCAASGFTFSSYSMNWVRQAPGKGLEWVSNINYNSGYKGYADSVKGRFTISRDNSKNTLYLQMNSLRAEDTAVYYCARGATWHDTHLDYWGQGTLVTVSS VL: DIQMTQSPSSLSASVGDRVTITCRASQSIISYLNWYQQKPGKAPKLLIYAATSRASGVPSRFSGSGSGTDFTLTISSLQPEDFATYYCQQSYDLPLTFGGGTKVEIK
no binding (tested: 1 uM top) | no binding (tested: 1 uM top) | 367_H11 (antibody, V domains shown) VH: EVQLLESGGGLVQPGGSLRLSCAASGFTFSSYGMNWVRQAPGKGLEWVAGINYNGGYKGYADSVKGRFTISRDNSKNTLYLQMNSLRAEDTAVYYCARSANWHDTALDYWGQGTLVTVSS VL: DIQMTQSPSSLSASVGDRVTITCRASQSIISYVNWYQQKPGKAPKLVIYAATSRASGVPSRFSGSGSGTDFTLTISSLQPEDFATYYCQQSYNSPLTFGGGTKVEIK
no binding (tested: 1 uM top) | no binding (tested: 1 uM top) | 369_H06 (antibody, V domains shown) VH: EVQLLESGGGLVQPGGSLRLSCAASGFTFSSYGMNWVRQAPGKGLEWVANINYNGGYKSYADSVKGRFTISRDNSKNTLYLQMNSLRAEDTAVYYCARSANWHDTALDYWGQGTLVTVSS VL: DIQMTQSPSSLSASVGDRVTITCRASQSIVSYVNWYQQKPGKAPKLLIYAATSRASGVPSRFSGSGSGTDFTLTISSLQPEDFATYYCQQSYDTPLTFGGGTKVEIK
no binding (tested: 1 uM top) | no binding (tested: 1 uM top) | 374_A05 (antibody, V domains shown) VH: EVQLLESGGGLVQPGGSLRLSCAASGFTFSDYGMNWVRQAPGKGLEWVANINYNGGYKGYADSVKGRFTISRDNSKNTLYLQMNSLRAEDTAVYYCARGATWHDTHLDYWGQGTLVTVSS VL: DIQMTQSPSSLSASVGDRVTITCRASQSIVRYLNWYQQKPGKAPKLVIYAATSLASGVPSRFSGSGSGTDFTLTISSLQPEDFATYYCQQSYELPLTFGGGTKVEIK
no binding (tested: 1 uM top) | no binding (tested: 1 uM top) | 370_H01 (antibody, V domains shown) VH: EVQLLESGGGLVQPGGSLRLSCAASGFTFSSYSMNWVRQAPGKGLEWVSGINYNSGYKGYADSVKGRFTISRDNSKNTLYLQMNSLRAEDTAVYYCARSANWHDTALDYWGQGTLVTVSS VL: DIQMTQSPSSLSASVGDRVTITCRASQSIISYLNWYQQKPGKAPKLLIYAVTSRASGVPSRFSGSGSGTDFTLTISSLQPEDFATYYCQQSYDTPLTFGGGTKVEIK
no binding (tested: 1 uM top) | no binding (tested: 1 uM top) | 365_E05 (antibody, V domains shown) VH: EVQLLESGGGLVQPGGSLRLSCAASGFTFSSYGMHWVRQAPGKGLEWVAGINYNGGYTSYADSVKGRFTISRDNSKNTLYLQMNSLRAEDTAVYYCARSANWHDTALDYWGQGTLVTVSS VL: DIQMTQSPSSLSASVGDRVTITCRASQSIVSYVNWYQQKPGKAPKLLIYAATSLASGVPSRFSGSGSGTDFTLTISSLQPEDFATYYCQQSYDNPLTFGGGTKVEIK
no binding (tested: 1 uM top) | no binding (tested: 1 uM top) | 370_E09 (antibody, V domains shown) VH: EVQLLESGGGLVQPGGSLRLSCAASGFTFDDSSMHWVRQAPGKGLEWVSNINYNGGYTGYADSVKGRFTISRDNSKNTLYLQMNSLRAEDTAVYYCAKSANWHDTALDYWGQGTLVTVSS VL: DIQMTQSPSSLSASVGDRVTITCRASQSILSYVNWYQQKPGKAPKLVIYAATSRASGVPSRFSGSGSGTDFTLTISSLQPEDFATYYCQQSYELPLTFGGGTKVEIK
no binding (tested: 1 uM top) | no binding (tested: 1 uM top) | 365_E07 (antibody, V domains shown) VH: EVQLLESGGGLVQPGGSLRLSCAASGFTFDSYGMHWVRQAPGKGLEWVSGINYNSGYTSYADSVKGRFTISRDNSKNTLYLQMNSLRAEDTAVYYCAKSANWHDTHLDYWGQGTLVTVSS VL: DIQMTQSPSSLSASVGDRVTITCRASQSILSYLNWYQQKPGKAPKLLIYAATSRASGVPSRFSGSGSGTDFTLTISSLQPEDFATYYCQQSYDNPLTFGGGTKVEIK
no binding (tested: 1 uM top) | no binding (tested: 1 uM top) | 370_C05 (antibody, V domains shown) VH: EVQLLESGGGLVQPGGSLRLSCAASGFTFSSYSMNWVRQAPGKGLEWVAGINYNSGYTGYADSVKGRFTISRDNSKNTLYLQMNSLRAEDTAVYYCARSANWHDTALDYWGQGTLVTVSS VL: DIQMTQSPSSLSASVGDRVTITCRASQSILSYVNWYQQKPGKAPKLVIYAATSRASGVPSRFSGSGSGTDFTLTISSLQPEDFATYYCQQSYNSPLTFGGGTKVEIK
no binding (tested: 1 uM top) | no binding (tested: 1 uM top) | 369_F01 (antibody, V domains shown) VH: EVQLLESGGGLVQPGGSLRLSCAASGFTFSSYGMNWVRQAPGKGLEWVSGINYNGGYKSYADSVKGRFTISRDNSKNTLYLQMNSLRAEDTAVYYCARSANWHDTALDYWGQGTLVTVSS VL: DIQMTQSPSSLSASVGDRVTITCRASQSILTYVNWYQQKPGKAPKLLIYAATSRASGVPSRFSGSGSGTDFTLTISSLQPEDFATYYCQQSYELPLTFGGGTKVEIK
no binding (tested: 1 uM top) | no binding (tested: 1 uM top) | 368_F03 (antibody, V domains shown) VH: EVQLLESGGGLVQPGGSLRLSCAASGFTFDSYSMNWVRQAPGKGLEWVAGINYNSGYTGYADSVKGRFTISRDNSKNTLYLQMNSLRAEDTAVYYCAKSANWHDTALDYWGQGTLVTVSS VL: DIQMTQSPSSLSASVGDRVTITCRASQSIISYLNWYQQKPGKAPKLVIYAATSRHSGVPSRFSGSGSGTDFTLTISSLQPEDFATYYCQQSYDSPLTFGGGTKVEIK
no binding (tested: 1 uM top) | no binding (tested: 1 uM top) | 370_A12 (antibody, V domains shown) VH: EVQLLESGGGLVQPGGSLRLSCAASGFTFSSYGMNWVRQAPGKGLEWVAGINYNGGYTSYADSVKGRFTISRDNSKNTLYLQMNSLRAEDTAVYYCARSANWHDTALDYWGQGTLVTVSS VL: DIQMTQSPSSLSASVGDRVTITCRASQSILTYLNWYQQKPGKAPKLLIYAATSLASGVPSRFSGSGSGTDFTLTISSLQPEDFATYYCQQSYDSPLTFGGGTKVEIK
